In the supplement of paper PMC6289059:
The list shows a part of the results. Repeats are few or missing, and single values can be far off.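 The cells are hepatocyte-like cells grown from human stem cells in which the DGUOK gene was disrupted by CRISPR, a model of liver mtDNA depletion syndrome. Each well's ATP signal was scored against the other wells on its plate, and a drug counted as a primary hit when its score was 3 or higher.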

System: DGUOK Δ14/Δ5 iPSC-derived hepatocyte-like cells (SV20)
Assay: ATP level (CellTiter-Glo luminescence) Z score relative to plate distribution, under 2-DG glycolysis block; higher = more cellular ATP (rescue of mitochondrial ATP production)
Settings: 5 µM; treatment time: day 15 to day 20 of differentiation (5 days); 2-deoxy-D-glucose: 20 mM for 24 h before assay

Q: `CC(=O)[C@H]1CC[C@H]2[C@@H]3CCC4C[C@H](O)CC[C@]4(C)[C@H]3C[C@H](O)[C@]12C` (stereo partly drawn) [3alpha,12alpha-DIHYDROXY-PREGNAN-20-ONE] was tested. Which ATP level did it give?
A: inactive: 1.55

Q: With `O=[N+]([O-])c1ccc(O)c([N+](=O)[O-])c1` as the compound, how does the ATP level read?
A: inactive: 0.139

Q: How did the ATP level turn out when `NCCCNCCSP(=O)(O)O` was run?
A: inactive: -24.9

Q: How did the ATP level turn out when `CN[C@@H](Cc1c[nH]c2ccccc12)C(=O)O` was run?
A: inactive: -0.552

Q: How did the ATP level turn out when `Nc1ccc([As](=O)(O)O)cc1` was run?
A: inactive: 2.47

Q: Which ATP level does the source give for `COc1cc2occc2c2oc(=O)ccc12` here?
A: inactive: 0.192

Q: For `COP(=S)(OC)Oc1cc(Cl)c(Cl)cc1Cl`, which ATP level is on record?
A: inactive: 1.87

Q: Which ATP level does the source give for `CN1C(=O)C(O)N=C(c2ccccc2)c2cc(Cl)ccc21` (stereo not drawn) here?
A: active: 3.08

Q: How did the ATP level turn out when `CCCCCCCCC(=O)NCc1ccc(O)c(OC)c1` was run?
A: inactive: -0.586

Q: How did the ATP level turn out when `CC1=C2C[C@H]3[C@@H](CC=C4C[C@@H](O)CC[C@@]43C)[C@@H]2CC[C@]12O[C@@H]1C[C@H](C)CN[C@H]1[C@H]2C` was run?
A: inactive: -0.156

Q: `COc1cccc2c1cc([N+](=O)[O-])c1c(C(=O)O)cc3c(c12)OCO3` was tested. Which ATP level did it give?
A: inactive: 1.25

Q: Which ATP level does the source give for `COc1ccc(/C=C/c2cc(O)cc(O)c2)cc1` here?
A: inactive: 1.04

Q: With `CC[C@H]1CN2CC[C@H]1C[C@H]2[C@H](O)c1ccnc2ccc(OC)cc12` as the compound, how does the ATP level read?
A: inactive: 0.156

Q: `CC(=O)[O][Hg][c]1ccccc1` was tested. Which ATP level did it give?
A: inactive: -3.4

Q: Which ATP level does the source give for `O=c1[nH]c2ccccc2n1C1CCN(CCCC(c2ccc(F)cc2)c2ccc(F)cc2)CC1` here?
A: inactive: -1.5

Q: With `Cc1cc2c(C(C)C)c(O)c(O)c(C=O)c2c(O)c1-c1c(C)cc2c(C(C)C)c(O)c(O)c(C=O)c2c1O` as the compound, how does the ATP level read?
A: inactive: -6.28

Q: `C/C=C(\C)C(=O)O[C@H]1C[C@@H](OC(C)=O)[C@@]2(C(=O)OC)CO[C@H]3[C@@H](O)[C@@](C)([C@]45O[C@@]4(C)[C@H]4C[C@@H]5O[C@@H]5OC=C[C@@]54O)[C@H]4[C@]1(CO[C@]4(O)C(=O)OC)[C@@H]32` was tested. Which ATP level did it give?
A: inactive: 2.82

Q: For `CC(=O)Nc1cc([As](=O)(O)O)ccc1O`, which ATP level is on record?
A: inactive: 0.356

Q: With `C#CCN(C)[C@H](C)Cc1ccccc1` as the compound, how does the ATP level read?
A: inactive: -2.89

Q: Which ATP level does the source give for `NCCc1ccccc1` here?
A: inactive: 1.46

Q: `CN(C)C(=O)Oc1ccc[n+](C)c1` was tested. Which ATP level did it give?
A: inactive: 0.352

Q: `Cc1cnc[nH]1` was tested. Which ATP level did it give?
A: inactive: -2.92

Q: How did the ATP level turn out when `C[C@@H]1O[C@@H](O[C@@H]2C=C3CC[C@@H]4[C@H](CC[C@]5(C)[C@@H](c6ccc(=O)oc6)CC[C@]45O)[C@@]3(C)CC2)[C@H](O)[C@H](O)[C@H]1O` was run?
A: inactive: -16.6

Q: How did the ATP level turn out when `C[C@@H]1O[C@@H](O[C@H]2CC[C@]3(C=O)[C@H]4CC[C@]5(C)[C@@H](C6=CC(=O)OC6)CC[C@]5(O)[C@@H]4CC[C@]3(O)C2)[C@H](O)[C@H](O)[C@H]1O` was run?
A: inactive: -18.4

Q: `CN1[C@@H]2C[C@@H](OC(=O)[C@H](CO)c3ccccc3)C[C@H]1[C@@H]1O[C@@H]12` was tested. Which ATP level did it give?
A: inactive: -0.0929

Q: How did the ATP level turn out when `CC1(C)C2CC(=O)[C@]3(C)C(CC[C@@]4(C)[C@H](c5ccoc5)OC(=O)C5OC543)[C@@]2(C)[C@@H](O)C[C@H]1O` (stereo partly drawn) was run?
A: inactive: 0.516

Q: `O=[N+]([O-])C(Br)(CO)CO` was tested. Which ATP level did it give?
A: inactive: -11.6

Q: With `CCOC(=O)C1C(C=C(C)C)C1(C)C` (stereo not drawn) as the compound, how does the ATP level read?
A: inactive: 2.65

Q: For `COC1=C[C@@H]2[C@@H]3Cc4ccc(OC)c(O)c4[C@]2(CCN3C)CC1=O`, which ATP level is on record?
A: inactive: -1.75

Q: With `O=C1C=CC(=O)c2ccccc21` as the compound, how does the ATP level read?
A: active: 3.1

Q: `CN(N)C=O` was tested. Which ATP level did it give?
A: inactive: -2.7

Q: Which ATP level does the source give for `CCC(C)C(=O)O[C@@H]1C[C@@]2(C)[C@H](c3ccoc3)OC(=O)CC23OC2(C)O[C@]14[C@]1(C)[C@@H](CC(=O)OC)C5(C)CC1(O)[C@](O)(C5OC(=O)C1(C)OC1C)[C@@H](OC(C)=O)[C@]34O2` (stereo partly drawn) here?
A: inactive: -1.45

Q: How did the ATP level turn out when `NCC(CC(=O)O)c1ccc(Cl)cc1` (racemic) was run?
A: inactive: 2.34

Q: How did the ATP level turn out when `CNc1ccccc1C(=O)O` was run?
A: inactive: 0.482

Q: For `CN1C[C@H](C(=O)N[C@]2(C)O[C@@]3(O)[C@@H]4CCCN4C(=O)[C@H](Cc4ccccc4)N3C2=O)C=C2c3cccc4[nH]cc(c34)C[C@H]21`, which ATP level is on record?
A: inactive: -0.65

Q: How did the ATP level turn out when `[O-][n+]1ccccc1[S-].[O-][n+]1ccccc1[S-].[Zn+2]` was run?
A: active: 3.28

Q: For `CN1CCN(C(=O)O[C@H]2c3nccnc3C(=O)N2c2ccc(Cl)cn2)CC1`, which ATP level is on record?
A: inactive: 1.64

Q: With `Cc1c(N)nc([C@H](CC(N)=O)NC[C@H](N)C(N)=O)nc1C(=O)N[C@H](C(=O)N[C@H](C)[C@@H](O)[C@H](C)C(=O)N[C@H](C(=O)NCCc1nc(-c2nc(C(=O)NCCC[S+](C)C)cs2)cs1)[C@@H](C)O)[C@@H](O[C@@H]1O[C@@H](CO)[C@@H](O)[C@H](O)[C@@H]1O[C@H]1O[C@H](CO)[C@@H](O)[C@H](OC(N)=O)[C@@H]1O)c1cnc[nH]1` [BLEOMYCIN (bleomycin B2 shown)] as the compound, how does the ATP level read?
A: inactive: 0.248

Q: How did the ATP level turn out when `COc1ccc2c(c1O)-c1c(OC)c(OC)cc3c1[C@H](C2)N(C)CC3` was run?
A: inactive: 1.39

Q: How did the ATP level turn out when `NC(=O)c1cc([N+](=O)[O-])cc([N+](=O)[O-])c1` was run?
A: active: 5.09

Q: Which ATP level does the source give for `O=C1CC[C@@]2(O)[C@H]3Cc4ccc(O)c5c4[C@@]2(CCN3CC2CC2)[C@H]1O5` here?
A: active: 6.15

Q: With `C=CCSSCC=C` as the compound, how does the ATP level read?
A: inactive: -0.854

Q: For `CC(=O)[C@H]1CC[C@H]2[C@@H]3CC[C@H]4C[C@H](O)CC[C@]4(C)[C@H]3CC[C@]12C`, which ATP level is on record?
A: inactive: -0.109
